{"source": "paper PMC1291380", "target": "T1, flag-tagged Wnt-5a (Xwnt-5a) (Xenopus) (UniProt P31286)", "T1 sequence": "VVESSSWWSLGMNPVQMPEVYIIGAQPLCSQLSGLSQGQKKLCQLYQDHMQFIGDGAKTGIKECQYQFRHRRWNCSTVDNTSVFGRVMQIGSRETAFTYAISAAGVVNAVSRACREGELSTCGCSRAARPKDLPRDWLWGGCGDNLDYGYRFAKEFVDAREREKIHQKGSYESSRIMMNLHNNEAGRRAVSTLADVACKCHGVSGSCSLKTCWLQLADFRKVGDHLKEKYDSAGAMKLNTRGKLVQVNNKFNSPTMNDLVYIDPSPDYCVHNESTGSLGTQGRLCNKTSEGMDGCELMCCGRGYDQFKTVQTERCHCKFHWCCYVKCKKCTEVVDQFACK", "experiment": "co-IP; extract of gastrula stage Xenopus embryos injected with both mRNAs; NP-40 lysis buffer (10 mM Tris-HCl pH 7.5, 100 mM NaCl, 2 mM EDTA, 1 mM EGTA, 0.5% NP-40, 5% glycerol); anti-flag (M2), anti-myc (9E10) or mouse IgG as control, 4°C, protein G beads; blot with anti-myc or anti-flag", "note": "These are yes or no findings as the source states them, for the method shown. Binding seen in cells or lysates may run through a third protein. Binding can be weak; no strength is given. Where a sequence is shown, tags or fusion partners need not be part of it.", "data": [{"substance": "Myc-tagged Xfz4S (Xenopus frizzled-4S, splicing variant of Xfz4)", "values": [{"measurement": "binding", "result": "binds"}]}]}
